Experiment [1] has as its target Extracellular-Signal-Regulated Kinase 5 (ERK5) (human (endogenous in NP9)) (UniProt Q13164). The experiment in a line: affinity purification with mass spectrometry; immunoaffinity chromatography: NP9 cell extracts on anti-ERK5 C-terminus antibody coupled to CNBr-activated Sepharose 4B, 2 h at 4 °C; eluted with 0.1 M glycine pH 2.6; SDS-PAGE 5-15% gradient, silver stain, MALDI-TOF.

By UniProt entry, the sequences of proteins in these tests, tags left out. Where a name states a change or a piece, a line headed by the entry shows the natural chain unless it says otherwise. Chains listed by the source or under a name are the forms on record and can include a tag or linker. Residues count along the entry.
UniProt Q13164: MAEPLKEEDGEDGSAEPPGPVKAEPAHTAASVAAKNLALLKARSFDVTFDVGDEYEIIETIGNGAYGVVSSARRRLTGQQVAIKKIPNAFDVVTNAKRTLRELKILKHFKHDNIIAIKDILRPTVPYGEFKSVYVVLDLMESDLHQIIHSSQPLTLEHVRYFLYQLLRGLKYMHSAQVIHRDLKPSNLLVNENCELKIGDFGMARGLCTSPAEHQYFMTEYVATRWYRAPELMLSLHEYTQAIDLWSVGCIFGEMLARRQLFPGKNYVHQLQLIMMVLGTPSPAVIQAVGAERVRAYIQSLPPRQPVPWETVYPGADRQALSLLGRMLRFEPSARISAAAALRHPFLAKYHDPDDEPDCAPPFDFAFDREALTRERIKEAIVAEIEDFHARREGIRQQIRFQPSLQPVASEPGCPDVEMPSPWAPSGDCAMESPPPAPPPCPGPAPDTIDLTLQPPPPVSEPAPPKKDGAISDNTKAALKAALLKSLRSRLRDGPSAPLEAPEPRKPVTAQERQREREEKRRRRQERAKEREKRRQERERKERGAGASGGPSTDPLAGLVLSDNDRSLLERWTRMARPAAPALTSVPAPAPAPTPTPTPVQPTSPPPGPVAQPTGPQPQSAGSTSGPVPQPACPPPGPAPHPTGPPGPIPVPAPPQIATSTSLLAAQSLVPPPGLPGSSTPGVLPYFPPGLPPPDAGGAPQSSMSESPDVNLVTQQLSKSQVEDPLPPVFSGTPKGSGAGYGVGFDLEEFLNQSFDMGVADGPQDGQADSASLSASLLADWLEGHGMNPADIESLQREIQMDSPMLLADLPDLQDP
kidney glutaminase (KGA), isoform of mitochondrial glutaminase GLS (O94925, residues 55-669): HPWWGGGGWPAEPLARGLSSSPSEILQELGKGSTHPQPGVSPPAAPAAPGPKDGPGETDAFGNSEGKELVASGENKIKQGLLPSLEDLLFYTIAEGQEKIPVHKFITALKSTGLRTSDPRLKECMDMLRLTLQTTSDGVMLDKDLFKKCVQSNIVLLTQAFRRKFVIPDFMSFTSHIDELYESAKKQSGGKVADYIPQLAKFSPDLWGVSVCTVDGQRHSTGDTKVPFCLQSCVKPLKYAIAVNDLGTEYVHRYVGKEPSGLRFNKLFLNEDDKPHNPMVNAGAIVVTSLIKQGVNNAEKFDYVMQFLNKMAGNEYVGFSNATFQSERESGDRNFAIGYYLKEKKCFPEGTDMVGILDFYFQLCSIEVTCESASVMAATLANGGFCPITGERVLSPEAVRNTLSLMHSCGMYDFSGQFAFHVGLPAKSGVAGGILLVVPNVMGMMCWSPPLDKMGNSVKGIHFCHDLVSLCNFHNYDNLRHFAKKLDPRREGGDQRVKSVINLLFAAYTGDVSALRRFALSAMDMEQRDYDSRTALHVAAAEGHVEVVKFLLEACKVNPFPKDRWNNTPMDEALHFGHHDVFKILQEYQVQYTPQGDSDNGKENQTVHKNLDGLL
glutaminase C (GAC), isoform of mitochondrial glutaminase GLS (O94925-3, form named): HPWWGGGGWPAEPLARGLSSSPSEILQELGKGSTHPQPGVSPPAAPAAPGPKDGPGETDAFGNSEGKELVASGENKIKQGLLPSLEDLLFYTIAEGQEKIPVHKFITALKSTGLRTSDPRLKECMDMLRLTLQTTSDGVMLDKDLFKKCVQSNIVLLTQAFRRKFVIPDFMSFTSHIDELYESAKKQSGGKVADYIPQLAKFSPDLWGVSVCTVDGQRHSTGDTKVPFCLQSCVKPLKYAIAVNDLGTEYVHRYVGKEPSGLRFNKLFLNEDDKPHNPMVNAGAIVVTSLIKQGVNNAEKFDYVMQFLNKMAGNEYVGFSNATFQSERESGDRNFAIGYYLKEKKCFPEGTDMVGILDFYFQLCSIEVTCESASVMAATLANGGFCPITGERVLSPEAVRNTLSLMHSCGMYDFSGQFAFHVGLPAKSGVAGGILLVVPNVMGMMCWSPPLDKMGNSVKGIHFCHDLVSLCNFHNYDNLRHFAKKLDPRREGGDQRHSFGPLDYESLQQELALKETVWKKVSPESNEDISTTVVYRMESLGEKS

For experiment [2] the target is unchanged. The experiment is described as follows: affinity purification with mass spectrometry; NP9 whole cell extracts (mild lysis buffer) immunoprecipitated with anti-ERK5 N-terminus or C-terminus antibodies, with or without an excess of the competing antigen; SDS-PAGE 5-10% gradient, silver stain, band cut out, MALDI-TOF peptide mass fingerprint (Mascot, Swiss-Prot).

No constants are given. Whether binding was seen depends on the method and setting. Binding seen in cells or lysates may run through a third protein. These calls come from enrichment with a bait or labelling near it, and not all partners need be listed.

The record followed here is article PMC10970367.

“glutaminase C (GAC), isoform of mitochondrial glutaminase GLS (from UniProt O94925-3 55-598) (enzyme)”: the binding entry in experiment [1] and in experiment [2] was “binds” in each case.

As to “kidney glutaminase (KGA), isoform of mitochondrial glutaminase GLS (from UniProt O94925 55-669) (enzyme)”, the binding entry in experiment [1] and in experiment [2] was “binds” each time.
